# Values of other authors, collected in patent EP1566168A1, “Dermo-cosmetic compositions for depigmenting and use of it” (priority 2004, dated 2005).
# Protein sequences, listed by entry. Tags and fused reporters are not part of them. Lines headed by an entry give the natural chain unless they say otherwise; changes in a name come on top.
# UniProt Q01726: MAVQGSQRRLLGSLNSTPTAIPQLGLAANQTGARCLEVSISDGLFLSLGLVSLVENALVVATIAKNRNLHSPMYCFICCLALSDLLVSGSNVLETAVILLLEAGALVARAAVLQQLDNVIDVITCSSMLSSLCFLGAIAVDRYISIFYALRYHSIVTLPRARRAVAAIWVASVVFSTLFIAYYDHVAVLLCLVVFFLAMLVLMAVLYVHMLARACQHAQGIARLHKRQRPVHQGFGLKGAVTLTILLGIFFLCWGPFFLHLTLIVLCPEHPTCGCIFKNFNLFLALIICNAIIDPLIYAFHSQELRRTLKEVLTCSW
# At least one read-out could not be matched to a standard name with certainty.
# Molecular target: récepteur de α-MSH (Homo sapiens, UniProt Q01726)
smiles,measurement,value
C=CCCCCCCCCC(=O)O [acide undécylénique],affinité vis-à-vis du récepteur de α-MSH,5%
